Laboratory results taken from PubChem BioAssay AID330 (DTP/NCI, 2004).
The list shows only some results of the screen, not a fair sample: it is rich in T/C values a quarter to a half above the control, in often repeated tests (any T/C) and in doses without a T/C. Further doses and runs are listed elsewhere. T/C: endpoint of the treated group in % of that of the vehicle group. Some entries give survivors of the animals treated and no T/C: the source holds a T/C of zero for them, seemingly a mark for toxic or unscored doses. Some doses without a T/C left all or most animals alive at the check, yet need not have been tolerated: the source hardly ever lists a survival T/C far under the control, and the zero likely stands for such cases as well. Counts of survivors are from the toxicity check (mostly the fifth day) where no day follows; animals may have died later. Schedule codes are those of the source, taken here to give the interval after Q, in days (D) or hours (H), and the number of doses after X. Some doses were run more than once; the results are listed from low to high. For survival time, the PubChem record calls one and a half times the control and up active, and a quarter to a half above the control has no call in these data; cut-offs in other NCI protocols can differ.

System: P388 leukemia ip, CD2F1 mice, survival T/C
Experiment: NCI In Vivo Anticancer Drug Screen. Data for tumor model P388 Leukemia (intraperitoneal) in CD2F1 (CDF1) mice
Conditions: T/C endpoint: median survival time, higher T/C = longer survival
[1] = dose: 200.0 mg/kg/injection, schedule: Q01DX005 (ip), vehicle: saline with Tween-80
[2] = dose: 50.0 mg/kg/injection, schedule: Q01DX009 (ip), vehicle: saline with Tween-80
[3] = dose: 100.0 mg/kg/injection, schedule: Q01DX009 (ip), vehicle: saline with Tween-80
[4] = dose: 200.0 mg/kg/injection, schedule: Q01DX009 (ip), vehicle: saline with Tween-80
[5] = dose: 200.0 mg/kg/injection, schedule: Q01DX005 (ip), vehicle: Klucel (hydroxypropylcellulose) (HPC)
[6] = dose: 200.0 mg/kg/injection, schedule: Q04DX003 (ip), vehicle: saline
[7] = dose: 400.0 mg/kg/injection, schedule: Q04DX003 (ip), vehicle: saline

## COc1ccc2c(c1)OCCN(C)OC2c1ccccc1 (centres undefined)
[1]
  survivor count: 6 of 6

## COc1ccc2c(c1)CCn1c(C)c(COC(=O)NC(C)C)c(COC(=O)NC(C)C)c1-2
dose: 3.13 mg/kg/injection, schedule: Q01DX009 (ip), vehicle: distilled water + Tween-80
  T/C: 142 % of control
dose: 6.25 mg/kg/injection, schedule: Q01DX009 (ip), vehicle: distilled water + Tween-80
  T/C: 136 % of control
dose: 50.0 mg/kg/injection, schedule: Q01DX009 (ip), vehicle: distilled water + Tween-80
  survivor count: 0 of 6 and 6 of 6
dose: 100.0 mg/kg/injection, schedule: Q01DX009 (ip), vehicle: distilled water + Tween-80
  survivor count: 3 of 6
dose: 200.0 mg/kg/injection, schedule: Q01DX009 (ip), vehicle: distilled water + Tween-80
  survivor count: 0 of 6

## CCOC(=O)c1ccc(NC(=O)Nc2nccs2)cc1
dose: 25.0 mg/kg/injection, schedule: Q01DX009 (ip), vehicle: saline with Tween-80
  T/C: 145 % of control
[2]
  T/C: 149 % of control
[3]
  T/C: 143 % of control

## NC(Cc1cc(I)c(O)c(I)c1)C(=O)O (centres undefined)
dose: 400.0 mg/kg/injection, schedule: Q01DX009 (ip), vehicle: saline with Tween-80
  survivor count: 6 of 6

## [CH3][Sn]([CH3])([Cl])[S]CCN
[2]
  survivor count: 3 of 6
[3]
  survivor count: 0 of 6
[4]
  survivor count: 0 of 6

## O=[Se](O)O
dose: 3.12 mg/kg/injection, schedule: Q01DX005 (ip), vehicle: water
  T/C: 126 % of control
dose: 6.25 mg/kg/injection, schedule: Q01DX005 (ip), vehicle: water
  survivor count: 3 of 6
dose: 12.5 mg/kg/injection, schedule: Q01DX005 (ip), vehicle: water
  survivor count: 0 of 5
dose: 25.0 mg/kg/injection, schedule: Q01DX005 (ip), vehicle: water
  survivor count: 0 of 5
dose: 50.0 mg/kg/injection, schedule: Q01DX005 (ip), vehicle: water
  survivor count: 0 of 5
dose: 100.0 mg/kg/injection, schedule: Q01DX005 (ip), vehicle: water
  survivor count: 0 of 5
dose: 200.0 mg/kg/injection, schedule: Q01DX005 (ip), vehicle: water
  survivor count: 0 of 5

## C=C1C(=O)OC2C1C(OC(=O)C(C)CC)CC1(O)COC3(O)C1C2C1(C)OC13 (centres undefined)
dose: 50.0 mg/kg/injection, schedule: Q01DX001 (ip), vehicle: Klucel (hydroxypropylcellulose) (HPC)
  survivor count: 1 of 6
dose: 100.0 mg/kg/injection, schedule: Q01DX001 (ip), vehicle: Klucel (hydroxypropylcellulose) (HPC)
  survivor count: 0 of 6

## CCOC(=O)Nc1cc2c(c(N)n1)N=C(c1ccc(Cl)cc1Cl)CN2
dose: 6.25 mg/kg/injection, schedule: Q01DX005 (ip), vehicle: saline with Tween-80
  T/C: 128 % of control
dose: 12.5 mg/kg/injection, schedule: Q01DX005 (ip), vehicle: saline with Tween-80
  T/C: 149 % of control
dose: 25.0 mg/kg/injection, schedule: Q01DX005 (ip), vehicle: saline with Tween-80
  survivor count: 5 of 5
dose: 50.0 mg/kg/injection, schedule: Q01DX005 (ip), vehicle: saline with Tween-80
  survivor count: 1 of 5

## O=C(O)/C(Cl)=C(\Cl)C(=O)Nc1c(Cl)cccc1Cl
dose: 240.0 mg/kg/injection, schedule: Q01DX005 (ip), vehicle: saline with Tween-80
  survivor count: 0 of 6

## COc1ccc2c(C)cc(NN)nc2c1
dose: 25.0 mg/kg/injection, schedule: Q01DX005 (ip), vehicle: Klucel (hydroxypropylcellulose) (HPC)
  survivor count: 2 of 6
dose: 50.0 mg/kg/injection, schedule: Q01DX005 (ip), vehicle: Klucel (hydroxypropylcellulose) (HPC)
  survivor count: 0 of 6
dose: 100.0 mg/kg/injection, schedule: Q01DX005 (ip), vehicle: Klucel (hydroxypropylcellulose) (HPC)
  survivor count: 0 of 6
[5]
  survivor count: 0 of 6

## Cc1cc(OCCCCCCC[N+](C)(C)Cc2ccc([N+](=O)[O-])o2)c(C(C)C)cc1Cl
dose: 50.0 mg/kg/injection, schedule: Q04DX003 (ip), vehicle: saline
  survivor count: 3 of 6
dose: 100.0 mg/kg/injection, schedule: Q04DX003 (ip), vehicle: saline
  survivor count: 0 of 6
[6]
  survivor count: 0 of 6
[7]
  survivor count: 0 of 6

## Nc1ncnc2nc(N=Nc3c(O)ccc4ccccc34)[nH]c12
[1]
  survivor count: 0 of 5

## Cn1c2nc3ccccc3c-2nc2ccccc21
dose: 12.5 mg/kg/injection, schedule: Q01DX009 (ip), vehicle: water
  survivor count: 6 of 6
dose: 25.0 mg/kg/injection, schedule: Q01DX009 (ip), vehicle: water
  survivor count: 6 of 6

## C[n+]1ccc(Nc2ccc(NC(=O)c3ccc(Nc4cc[n+](C)c5ccc(N)cc45)cc3)cc2)cc1
dose: 1.73 mg/kg/injection, schedule: Q04DX003 (ip), vehicle: water
  T/C: 143 % of control
dose: 1.94 mg/kg/injection, schedule: Q04DX003 (ip), vehicle: water
  T/C: 130 % of control
dose: 2.0 mg/kg/injection, schedule: Q01DX005 (iv), vehicle: suspension in saline
  survivor count: 3 of 6
dose: 3.24 mg/kg/injection, schedule: Q04DX003 (ip), vehicle: water
  T/C: 130 % of control
dose: 4.0 mg/kg/injection, schedule: Q01DX005 (iv), vehicle: suspension in saline
  survivor count: 0 of 6
dose: 5.4 mg/kg/injection, schedule: Q04DX003 (ip), vehicle: water
  T/C: 140 % of control
dose: 8.0 mg/kg/injection, schedule: Q01DX005 (iv), vehicle: suspension in saline
  survivor count: 0 of 6
dose: 15.0 mg/kg/injection, schedule: Q04DX003 (ip), vehicle: water
  survivor count: 5 of 8
dose: 16.0 mg/kg/injection, schedule: Q01DX005 (ip), vehicle: suspension in saline
  survivor count: 5 of 6
dose: 16.0 mg/kg/injection, schedule: Q01DX005 (iv), vehicle: suspension in saline
  survivor count: 0 of 6
dose: 32.0 mg/kg/injection, schedule: Q01DX005 (ip), vehicle: suspension in saline
  survivor count: 1 of 6
dose: 32.0 mg/kg/injection, schedule: Q01DX005 (iv), vehicle: suspension in saline
  survivor count: 0 of 6

## O=C1C=CC2(CC=CCC2)CC1 (centres undefined)
dose: 50.0 mg/kg/injection, schedule: Q01DX008 (ip), vehicle: Klucel (hydroxypropylcellulose) (HPC)
  survivor count: 4 of 6
dose: 50.0 mg/kg/injection, schedule: Q01DX009 (ip), vehicle: Klucel (hydroxypropylcellulose) (HPC)
  survivor count: 5 of 6

## CO[C@H]1/C=C/O[C@@]2(C)Oc3c(C)c(O)c4c(O)c(c(/C=N/N5CCCN(Cc6ccccc6)CC5)c(O)c4c3C2=O)NC(=O)/C(C)=C\C=C\[C@H](C)[C@H](O)C(C)[C@@H](O)C(C)[C@H](OC(C)=O)[C@@H]1C (some centres undefined)
[2]
  T/C: 125 % of control
dose: 50.0 mg/kg/injection, schedule: Q01DX009 (ip), vehicle: suspension in saline
  T/C: 128 % of control
[3]
  T/C: 125 % of control
dose: 100.0 mg/kg/injection, schedule: Q01DX009 (ip), vehicle: suspension in saline
  T/C: 128 % of control
[4]
  survivor count: 4 of 6
dose: 200.0 mg/kg/injection, schedule: Q01DX009 (ip), vehicle: suspension in saline
  survivor count: 6 of 6

## CCCCCCCCCCN(CCCCCCCCCC)CC(=O)c1ccc2cc(Br)c3ccccc3c2c1
[5]
  survivor count: 3 of 5

## CC(=O)OC(C(=O)N1CC1)C(OC(C)=O)C(OC(C)=O)C(OC(C)=O)C(=O)N1CC1 (centres undefined)
dose: 100.0 mg/kg/injection, schedule: Q01DX009 (ip), vehicle: Klucel (hydroxypropylcellulose) (HPC)
  survivor count: 3 of 6
dose: 200.0 mg/kg/injection, schedule: Q01DX009 (ip), vehicle: Klucel (hydroxypropylcellulose) (HPC)
  survivor count: 1 of 6

## O=S1(=O)CC2=C(C1)C1C=CC2C2C=CC12 (centres undefined)
[6]
  survivor count: 5 of 6
[7]
  survivor count: 3 of 6

## NNP(=O)(Oc1ccccc1)Oc1ccccc1
[2]
  survivor count: 3 of 6
[3]
  survivor count: 0 of 6
[4]
  survivor count: 0 of 6

## CC(=O)Nc1ccc(C(=O)O)c(O)c1.CC(=O)Nc1ccc(C(=O)O)c(O)c1.[Cu]
dose: 100.0 mg/kg/injection, schedule: Q01DX001 (ip), vehicle: saline with Tween-80
  survivor count: 0 of 6
dose: 200.0 mg/kg/injection, schedule: Q01DX001 (ip), vehicle: saline with Tween-80
  survivor count: 0 of 6
dose: 400.0 mg/kg/injection, schedule: Q01DX001 (ip), vehicle: saline with Tween-80
  survivor count: 0 of 6
